Data from PMC7819943, “Rice protein-binding microarrays: a tool to detect cis-acting elements near promoter regions in rice”.
The other results are listed elsewhere or left out.

Target: T1, OsSMF1 (Oryza sativa, UniProt Q6ZLB0 1-436)
T1 sequence: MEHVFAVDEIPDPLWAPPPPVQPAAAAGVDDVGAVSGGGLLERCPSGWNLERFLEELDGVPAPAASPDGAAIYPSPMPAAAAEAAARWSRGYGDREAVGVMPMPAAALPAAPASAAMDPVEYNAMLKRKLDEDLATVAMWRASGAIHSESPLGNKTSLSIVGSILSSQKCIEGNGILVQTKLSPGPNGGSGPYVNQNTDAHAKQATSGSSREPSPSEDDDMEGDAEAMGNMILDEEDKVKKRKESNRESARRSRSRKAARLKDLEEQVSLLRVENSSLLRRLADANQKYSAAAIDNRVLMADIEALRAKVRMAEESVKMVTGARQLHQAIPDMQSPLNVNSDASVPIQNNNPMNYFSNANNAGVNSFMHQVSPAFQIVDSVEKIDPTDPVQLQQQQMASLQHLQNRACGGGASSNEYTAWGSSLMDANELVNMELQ
Experiment: protein-binding microarray (RPBM); PBS, 2% BSA, 51.3 ng/ul salmon testes DNA, 50 uM zinc acetate, 200 nM TF, 25 C, 1 h; high values mean tight binding
Settings: protein: recombinant; tags: N-terminal polyhistidine and DsRed monomer fusion (pET32a); chain copies: 2; label: CyDye5-dUTP incorporated in the synthesized complementary strand; 3' TTTTT single-stranded linker to array surface; dsDNA, one strand shown
In short: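 Binding signal is defined as the fluorescence intensity of each feature in arbitrary units, read on an Axon 4000B scanner. Transcription factors with N-terminal polyhistidine and DsRed fusions came from E. coli BL21-CodonPlus and were purified on Ni–NTA. They were incubated at 200 nM for 1 h at 25 °C on a custom Agilent array that had been made double-stranded with Cy5-dUTP, with 50 µM zinc acetate present, and the array was washed.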

Row | Sequence | binding signal
1 | ATTCAACCCAAGCCCAGTGTCACCGCGTACGTCACATTTACGGAGTCACCTAGTGCAG | 4260 fluorescence intensity (a.u.)
2 | CTGGATATGACACATCCTAGTACTACGAAACTGGATATACCGGAGTCACCTAGTGCAG | 5350 fluorescence intensity (a.u.)
3 | TACCGTATCCTCCTCGTCACACCCTACCCTACGCCCGGATCGGAGTCACCTAGTGCAG | 4250 fluorescence intensity (a.u.)
4 | GAAATTTAAAATAAAATCGAATATTGAGTCAGAGTAAACACGGAGTCACCTAGTGCAG | 3800 fluorescence intensity (a.u.)
5 | TGAACTAGGCGGCGGTGGGCCCACCGCTTCCATTCTTCTCCGGAGTCACCTAGTGCAG | 3300 fluorescence intensity (a.u.)
6 | ACAGGGGCAGGGGTCATGTGGTGGAGGTAATCAATTAATCCGGAGTCACCTAGTGCAG | 3660 fluorescence intensity (a.u.)
7 | CATGAGCGCCACATTGCCATGAAATTGATAACATGATTTGCGGAGTCACCTAGTGCAG | 3360 fluorescence intensity (a.u.)
8 | GACTTGCGGCCACGGAGTCAGGGCCGTGCACGTGGAGGTACGGAGTCACCTAGTGCAG | 4910 fluorescence intensity (a.u.)
9 | TTGGCCGGTAACGCGTCATGACTCATGAGCTACTGGACTTCGGAGTCACCTAGTGCAG | 9990 fluorescence intensity (a.u.)
10 | GGAAGATGACGCGTACGCCACACGAACACGATCCGCCCGTCGGAGTCACCTAGTGCAG | 5740 fluorescence intensity (a.u.)
11 | CCACCAAAACCACATGCGACCACGCGAGACCCATGTACCGCGGAGTCACCTAGTGCAG | 3390 fluorescence intensity (a.u.)
12 | CGTTTCAGATTTGTTTACGTCACCATAAGTAAAGTTTTCTCGGAGTCACCTAGTGCAG | 5960 fluorescence intensity (a.u.)
13 | ACTTCCTCAACATGTTAGCATTATTTCGTTCTGCTGTATACGGAGTCACCTAGTGCAG | 20900 fluorescence intensity (a.u.)
14 | GGCGTTCTGCCGCCTGGCGCCGCTCGTCACGTACGAGGACCGGAGTCACCTAGTGCAG | 3350 fluorescence intensity (a.u.)
15 | AGGCCGAAATCCCGGGCTGTTCAGGTGTGTCAGTATATGGCGGAGTCACCTAGTGCAG | 3150 fluorescence intensity (a.u.)
16 | AACTGACTCATACACGGATGACGTACCAAAATACCGGCAACGGAGTCACCTAGTGCAG | 6650 fluorescence intensity (a.u.)
17 | TTAAGTGAAAACATGAGTCTAGCCCTAGCCCAATGTGAAACGGAGTCACCTAGTGCAG | 36300 fluorescence intensity (a.u.)
18 | TACAGGACTATGTGTGCGTGCTACAGTGTTCTGGTCAAATCGGAGTCACCTAGTGCAG | 4360 fluorescence intensity (a.u.)
19 | CAGTTTCTGTCGTAGTGGAGCGGAAACCTGTCACCGAGAGCGGAGTCACCTAGTGCAG | 3240 fluorescence intensity (a.u.)
20 | CTGGACATGTGACACATCATAGTACCATGAATGTAGTACTCGGAGTCACCTAGTGCAG | 4930 fluorescence intensity (a.u.)
21 | GTTTAGGACTTTAACACACGTGGTTGGTTTCACCACAAGACGGAGTCACCTAGTGCAG | 3300 fluorescence intensity (a.u.)

Pulled one by one from the list above (two):
Row | Sequence | binding signal
14 | GGCGTTCTGCCGCCTGGCGCCGCTCGTCACGTACGAGGACCGGAGTCACCTAGTGCAG | 3350 fluorescence intensity (a.u.)
9 | TTGGCCGGTAACGCGTCATGACTCATGAGCTACTGGACTTCGGAGTCACCTAGTGCAG | 9990 fluorescence intensity (a.u.)

(cont.)

Row | Sequence | binding signal
22 | TCTCAGTATAAAAGCCCGCGACATCACGCTATATCTGCTACGGAGTCACCTAGTGCAG | 4050 fluorescence intensity (a.u.)
23 | TCTTGATGATGTGGAGTTTATGGAAACTATGTCTAGTGTTCGGAGTCACCTAGTGCAG | 7560 fluorescence intensity (a.u.)
24 | GTGTGTTATAGGAGACGCATTTATGGGTGTGGGTATGACTCGGAGTCACCTAGTGCAG | 3650 fluorescence intensity (a.u.)
25 | CTGGGGTGCATCGTCAGCCAGCACTTCGAGCCACCTATGCCGGAGTCACCTAGTGCAG | 5100 fluorescence intensity (a.u.)
26 | AATCTCCAACCCTTCACACTCTCCTCTCATCCACGTAAACCGGAGTCACCTAGTGCAG | 4180 fluorescence intensity (a.u.)
27 | TTGCTACCTCATCTATCCCTTCCACCTCACTCTCACTGATCGGAGTCACCTAGTGCAG | 4380 fluorescence intensity (a.u.)
28 | TGAACGAGAAGTGAGCGACTCTCGTTAAACGAACTGCGTTCGGAGTCACCTAGTGCAG | 3580 fluorescence intensity (a.u.)
29 | AAATAATGTGGCCGGACGGGCGGTAGGGTCCTGGCAGCAGCGGAGTCACCTAGTGCAG | 28000 fluorescence intensity (a.u.)
30 | GGTTGGTGCTGTATTGTTTGAGGGGAGGGGATTCCATTTTCGGAGTCACCTAGTGCAG | 5020 fluorescence intensity (a.u.)
31 | GAGACGAGATCTTTCCGTCCAGGTGGCATCAGCGGATTGGCGGAGTCACCTAGTGCAG | 4590 fluorescence intensity (a.u.)
32 | GAATGATGTTTTCGTGAAATCTGATGGAAAGCCGGTAGATCGGAGTCACCTAGTGCAG | 7450 fluorescence intensity (a.u.)
33 | ATATGGAGACAACACCGTACGATGACATTTACCTTGAGCCCGGAGTCACCTAGTGCAG | 3520 fluorescence intensity (a.u.)
34 | TTTTCATAAATGCTCCTTTGAAACAAATGATTTTACCCTACGGAGTCACCTAGTGCAG | 43000 fluorescence intensity (a.u.)
35 | AAAATCATGGTAACAAACAAATGCACACATATTGATACAACGGAGTCACCTAGTGCAG | 20800 fluorescence intensity (a.u.)
36 | TATCGAGCTAGCTAGGCACAGAGCCATGGCGATGAGGTGGCGGAGTCACCTAGTGCAG | 6060 fluorescence intensity (a.u.)
37 | TCGATCTACACATGCGGCTGTTCTTCGTTCGCGTCATTGTCGGAGTCACCTAGTGCAG | 3500 fluorescence intensity (a.u.)
38 | ACGCAGAGGCCGCCGACGACAAGCCGCTCGCCGGGATCAGCGGAGTCACCTAGTGCAG | 7920 fluorescence intensity (a.u.)
39 | GCAATGGTCACCTGATACGAAGTGAAACCACACCACACCACGGAGTCACCTAGTGCAG | 3660 fluorescence intensity (a.u.)
40 | ACTTAAAGCTGTCTTGGAATTTCGATGACGCGTGCCATTTCGGAGTCACCTAGTGCAG | 5310 fluorescence intensity (a.u.)
41 | GTATGTCGCTGAATTTAGACACCTCAACATCAAATACCATCGGAGTCACCTAGTGCAG | 3900 fluorescence intensity (a.u.)
42 | TCATGTTGTTGCCACGCCGATATGCCTCCTCATGCGTATCCGGAGTCACCTAGTGCAG | 6460 fluorescence intensity (a.u.)
